Data taken from patent US11753370B2, “Methods of making deuterium-enriched N-acetylcysteine amide (d-NACA) and (2R, 2R′)-3,3′-disulfanediyl bis(2-acetamidopropanamide) (diNACA) and using d-NACA and diNACA to treat diseases involving oxidative stress” (Nacuity Pharmaceuticals, Inc., priority 2017, dated 2023).
At least one read-out could not be matched to a standard name with certainty.

Experiment: Bioavailability in tissues (retina, aqueous humor) after dosing
Format: in vivo
Details: dosing the patient, comparison with NACA

## CC(=O)N[C@@H](CSSC[C@H](NC(C)=O)C(N)=O)C(N)=O [DiNACA, (2R,2R′)-3,3′-disulfanediyl bis(2-acetamidopropanamide)]
  bioavailability in tissues like the retina and aqueous humore compared to dosing with NACA: greater
